In paper PMC11006747:
Results are given in words; binding and its absence hold for the method and conditions named. Binding seen in cells or lysates may run through a third protein. Some results given as binding are weak or reduced against the parent protein; the word gives no strength.

Protein sequences, listed by entry. Tags and fused reporters are not part of them. Lines headed by an entry give the natural chain unless they say otherwise; changes in a name come on top. Chains listed by the source or under a name are the forms on record and can include a tag or linker.
UniProt P17302: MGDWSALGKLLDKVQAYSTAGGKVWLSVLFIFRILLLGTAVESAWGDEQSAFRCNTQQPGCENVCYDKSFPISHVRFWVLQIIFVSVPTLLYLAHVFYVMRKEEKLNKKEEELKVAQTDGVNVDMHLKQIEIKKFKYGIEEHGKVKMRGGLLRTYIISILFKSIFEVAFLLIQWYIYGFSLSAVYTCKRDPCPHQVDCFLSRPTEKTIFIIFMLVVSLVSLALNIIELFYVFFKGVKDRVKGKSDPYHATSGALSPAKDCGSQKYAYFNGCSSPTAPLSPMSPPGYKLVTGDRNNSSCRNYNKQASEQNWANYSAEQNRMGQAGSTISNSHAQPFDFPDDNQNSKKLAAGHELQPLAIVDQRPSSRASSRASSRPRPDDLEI
HA-ITCH-wild type (Q96J02-2, form named): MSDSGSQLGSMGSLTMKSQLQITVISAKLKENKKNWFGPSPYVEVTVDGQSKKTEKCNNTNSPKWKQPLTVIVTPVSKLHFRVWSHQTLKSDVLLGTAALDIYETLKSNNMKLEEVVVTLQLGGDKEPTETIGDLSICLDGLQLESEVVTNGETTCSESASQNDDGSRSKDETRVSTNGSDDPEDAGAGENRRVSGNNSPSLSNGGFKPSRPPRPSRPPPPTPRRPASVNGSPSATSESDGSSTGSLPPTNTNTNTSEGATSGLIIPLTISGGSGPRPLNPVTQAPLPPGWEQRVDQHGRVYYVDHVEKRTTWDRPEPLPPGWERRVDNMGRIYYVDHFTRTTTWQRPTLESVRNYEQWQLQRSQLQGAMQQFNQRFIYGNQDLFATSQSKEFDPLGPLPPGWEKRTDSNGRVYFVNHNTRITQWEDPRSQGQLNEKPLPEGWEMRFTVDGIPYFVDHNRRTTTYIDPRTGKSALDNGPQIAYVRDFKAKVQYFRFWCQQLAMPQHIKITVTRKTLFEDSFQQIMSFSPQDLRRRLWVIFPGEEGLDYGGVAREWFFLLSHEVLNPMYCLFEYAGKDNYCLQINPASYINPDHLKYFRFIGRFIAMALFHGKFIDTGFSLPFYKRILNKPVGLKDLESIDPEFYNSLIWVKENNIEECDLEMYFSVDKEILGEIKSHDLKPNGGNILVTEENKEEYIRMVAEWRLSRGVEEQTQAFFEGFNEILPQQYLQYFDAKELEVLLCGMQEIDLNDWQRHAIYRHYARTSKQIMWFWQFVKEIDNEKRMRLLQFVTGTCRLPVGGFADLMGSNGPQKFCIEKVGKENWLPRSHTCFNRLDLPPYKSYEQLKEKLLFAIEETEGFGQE

Biological target: Cx43-WT (human connexin43, transiently expressed) (human) (UniProt P17302)
Assay: co-IP; lysates of HeLa cells negative for Cx43, co-transfected 48 h with Cx43-WT or Cx43-P283A and HA-ITCH-WT, immunoprecipitated with anti-Cx43 antibodies cross-linked to protein A-Sepharose, 2 h at 4 °C; HA-ITCH detected by western blot with anti-HA and normalised to Cx43 in the immunoprecipitate; in one experiment cells treated with DMSO or bafilomycin A1 (200 nM) for the last 18 h; rabbit IgG as control

- binding: binds
Substance: HA-ITCH-wild type (from UniProt Q96J02-2 1-862) (enzyme)
